Source: article PMC12040169 (PLOS Biology, 2025)
This is one part of the list.

tested on: T1, CTL2-GFP (C. trachomatis L2/434/Bu, GFP-expressing); design: species or system HeLa; Intracellular C. trachomatis growth in HeLa cells, bulk GFP fluorescence relative to DMSO; conditions: bulk GFP, single well; 28.5 h, 10 µM; inhibitor
T1 construct: L2/434/Bu, GFP-expressing

Structure (SMILES)	% of control remaining
COc1ccc(OC(C)(C)C(=O)N2CCCC(c3ccc(Nc4ncccn4)cn3)C2)cc1 (stereo not drawn) [CBK285970]	94.6479%
CCN1CCN(c2cc3c(cc2F)c(=O)c(C(=O)NCCOC)cn3C2CC2)CC1 [CBK300529]	3.302%
CCc1ccc(OC(C)c2nnc(SCC(=O)N3c4ccccc4Sc4ccccc43)n2C)cc1 (stereo not drawn) [CBK268058]	126.606%
Fc1ccccc1Oc1nnnn1-c1ccccc1 [CBK002526]	96.2539%
COc1ccccc1OC(=O)c1ccccc1Cl [CBK090164]	160.413%
CCCOc1ccc(-c2nnn(CC(=O)OCC)n2)cc1 [CBK068817]	100%
O=C(NCc1ccccc1)c1ccco1 [CBK086713]	116.163%
Cc1noc(C)c1CN1CCN(CC(CC(=O)Nc2ccccc2)C(=O)O)CC1 (stereo not drawn) [CBK286858]	130.409%
CCCn1nnc(NC(=O)COc2ccc3ccccc3c2)n1 [CBK265923]	164.762%
O=C(CCc1ccc(=O)[nH]n1)N1CCCCC1c1nc2cc(F)ccc2[nH]1 (stereo not drawn) [CBK291107]	110.912%
O=S(=O)(Nc1ccccc1N1CCCCC1)c1ccc(Cl)cc1 [CBK077063]	81.1938%
Cn1cc2c(n1)[C@H]1CN(C(=O)c3cc(C(F)(F)F)n(C)n3)C[C@H]1C2 [CBK283399]	127.349%
CCOC(=O)CNc1ccc(C(F)(F)F)cc1 [CBK057732]	164.302%
COc1ccc(C)cc1OCCO [CBK001975]	89.6661%
COc1cccc(C(O)CN2CCC3(CC2)CC(O)c2cc(Cl)c(C)cc2O3)c1 (stereo not drawn) [CBK286342]	95.8873%
NS(=O)(=O)c1ccc(C(=O)Nc2cccc3cc[nH]c23)cc1 [CBK160094]	106.897%
CC(C)(C)C(=O)NC(N(Cc1ccccc1)Cc1ccccc1)C(Cl)(Cl)Cl (stereo not drawn) [CBK261023]	120.833%
O=C(Nc1ccccc1C(=O)NCCCc1nc2ccccc2[nH]1)c1cccs1 [CBK296641]	140.298%
O=[N+]([O-])c1cc(Nc2ncnc3ccccc23)cc(Oc2ccccc2)c1 [CBK293928]	104.302%
O=C(c1ccc2occc2c1)N1CCCC2(CCN(C(=O)c3cc(F)c(F)cc3F)C2)C1 (stereo not drawn) [CBK137071]	142.803%
Cc1nn2c(c1-c1ccccc1)NC(=O)CC2C(=O)O (stereo not drawn) [CBK287118]	129.793%
O=C1NC2(CCC2)C(=O)N1Cc1coc(-c2cccs2)n1 [CBK305209]	99.9361%
O=C(Nc1ccccc1)c1ccccc1OCc1ccc(S(=O)(=O)N2CCOCC2)cc1 [CBK267396]	117.604%
CSc1ccccc1CNC(=O)c1cc(Br)cnc1N(C)S(C)(=O)=O [CBK076529]	117.481%
CN(C)C(=O)NCCNC(=O)c1c[nH]nc1-c1cc2ccccc2o1 [CBK306157]	124.074%
CC(C)[C@@H](CO)Nc1nc(-c2ccc3ccccc3c2)cn2ccnc12 [CBK037445]	127.818%

For convenience, part of the list above.
Structure (SMILES)	% of control remaining
O=S(=O)(Nc1ccccc1N1CCCCC1)c1ccc(Cl)cc1 [CBK077063]	81.1938%
Cn1cc2c(n1)[C@H]1CN(C(=O)c3cc(C(F)(F)F)n(C)n3)C[C@H]1C2 [CBK283399]	127.349%
CCOC(=O)CNc1ccc(C(F)(F)F)cc1 [CBK057732]	164.302%
COc1ccc(C)cc1OCCO [CBK001975]	89.6661%

Continuation.

Structure (SMILES)	% of control remaining
NC(=O)C1CCN(S(=O)(=O)c2ccc([N+](=O)[O-])cc2)CC1 [CBK261455]	108.217%
CCN(CC)CCOC(=O)c1oc2c3c(ccc2c1C)OCCO3 [CBK008676C]	90.9849%
COc1ccc(C)cc1NS(=O)(=O)c1cc(I)c2occc2c1 [CBK078531]	112.452%
CCOCCn1c(N2CC(C)CC(C)C2)nc2c1c(=O)[nH]c(=O)n2C (stereo not drawn) [CBK306200]	90.3407%
COC(=O)c1ccc(C)c(N(CCO)CCO)c1 [CBK262418]	125.595%
O=C(NCN1CCN(c2ccc([N+](=O)[O-])cc2)CC1)c1cccnc1 [CBK264909]	94.266%
CN1CCCC1CCOc1ncccc1OCCO (stereo not drawn) [CBK039176]	103.205%
CCOC(=O)CNS(=O)(=O)c1ccc(C(F)(F)F)cc1[N+](=O)[O-] [CBK034446]	83.7461%
COC(=O)[C@@H](NC(=O)C1CCN(C(=O)OCc2ccccc2)CC1)c1ccccc1 [CBK081468]	109.538%
O=C1/C(=C/c2ccc(OCc3ccccc3Cl)c(Cl)c2)SC(=S)N1Cc1cccnc1 [CBK264702]	100%
C=CCn1c2cc(C)sc2c2cnn(CC(=O)N(C)C)c(=O)c21 [CBK284164]	116.344%
O=C(COc1ccc(Cl)cc1Br)NNC(=O)c1ccc(O)cc1 [CBK262950]	125.537%
O=C(Nc1cccc(-c2cccc(F)c2)c1)c1ccccc1Cn1cncn1 [CBK285735]	108.903%
COc1ccnc(N2CCN(C(=O)c3cnn(C)c3C3CC3)CC2)n1 [CBK304900]	131.279%
COC(=O)COc1ccc(S(=O)(=O)NCc2ccc3c(c2)OCO3)cc1C [CBK267172]	182.212%
CNC(=O)c1sc2ccccc2c1C1CN(Cc2cn(C)c3cc(OC)ccc23)CCO1 (stereo not drawn) [CBK286087]	110.859%
CCSc1nnc(-c2cccc(C)c2)n1CC1CCCCC1 [CBK085419]	106.581%
CCOc1ccc(Cl)cc1CCNC(=O)NC(C)c1nnnn1C (stereo not drawn) [CBK305923]	141.546%
O=C(COc1ccc(S(=O)(=O)N2CCCCC2)cc1Cl)N1CCc2ccccc2C1 [CBK269510]	144.088%
CCc1cccc2c(CN3CCc4nc(C)[nH]c(=O)c4C3)c[nH]c12 [CBK283931]	146.943%
Cc1ccc(NC(=O)C2CC(=O)Nc3nc(SCc4ccccc4C)[nH]c(=O)c32)c(C)c1 (stereo not drawn) [CBK294438]	149.734%
O=C(NCc1ccc(F)cc1)Nc1ccccc1F [CBK115584]	108.813%
O=C(c1cccc(F)c1)N1CCCC1c1cc2cccnc2[nH]1 (stereo not drawn) [CBK285081]	126.681%
CCc1cc(Br)ccc1S(=O)(=O)Nc1ccnn1CC [CBK044900]	120.312%
CN(C)c1ccccc1-c1cc(Nc2ccc3cn[nH]c3c2)ncn1 [CBK090850]	143.522%
